We go through 2 molecules from article PMC12967509.

Results are given in words; binding and its absence hold for the method and conditions named. In cells and extracts the contact can be indirect. Some entries that bind do so weakly or less than the wild type. Where a sequence is shown, tags or fusion partners need not be part of it.

What all share (assay): co-IP; EGFP-fused bait stably expressed in control RPE1 cells and KO cells (KIF3B-KO, IFT38-KO, IFT54-KO, IFT81-KO, IFT88-KO), serum-starved 24 h; lysis buffer 20 mM HEPES-KOH pH 7.4, 100 mM KCl, 5 mM NaCl, 3 mM MgCl2, 1 mM DTT, 10% glycerol, 0.1% Triton X-100; precipitated with GST-tagged anti-GFP Nb on glutathione-Sepharose 4B; endogenous subunits detected by immunoblot
One experiment concerns the target T1, EGFP-fused IFT52 (UniProt Q9Y366).
T1 sequence: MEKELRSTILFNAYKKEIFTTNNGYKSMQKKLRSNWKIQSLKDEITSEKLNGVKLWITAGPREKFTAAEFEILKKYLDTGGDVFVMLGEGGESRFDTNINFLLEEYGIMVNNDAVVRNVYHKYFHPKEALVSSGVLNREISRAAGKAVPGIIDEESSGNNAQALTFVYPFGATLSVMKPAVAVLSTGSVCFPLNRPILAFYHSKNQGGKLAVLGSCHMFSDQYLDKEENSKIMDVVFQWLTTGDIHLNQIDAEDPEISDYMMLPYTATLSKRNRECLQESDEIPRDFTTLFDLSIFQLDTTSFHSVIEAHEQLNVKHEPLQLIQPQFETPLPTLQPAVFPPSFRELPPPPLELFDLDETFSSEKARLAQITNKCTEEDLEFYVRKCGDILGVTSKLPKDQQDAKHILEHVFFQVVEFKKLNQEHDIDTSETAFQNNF

Another experiment has as its target T2, EGFP-fused IFT74 (UniProt Q96LB3).
T2 sequence: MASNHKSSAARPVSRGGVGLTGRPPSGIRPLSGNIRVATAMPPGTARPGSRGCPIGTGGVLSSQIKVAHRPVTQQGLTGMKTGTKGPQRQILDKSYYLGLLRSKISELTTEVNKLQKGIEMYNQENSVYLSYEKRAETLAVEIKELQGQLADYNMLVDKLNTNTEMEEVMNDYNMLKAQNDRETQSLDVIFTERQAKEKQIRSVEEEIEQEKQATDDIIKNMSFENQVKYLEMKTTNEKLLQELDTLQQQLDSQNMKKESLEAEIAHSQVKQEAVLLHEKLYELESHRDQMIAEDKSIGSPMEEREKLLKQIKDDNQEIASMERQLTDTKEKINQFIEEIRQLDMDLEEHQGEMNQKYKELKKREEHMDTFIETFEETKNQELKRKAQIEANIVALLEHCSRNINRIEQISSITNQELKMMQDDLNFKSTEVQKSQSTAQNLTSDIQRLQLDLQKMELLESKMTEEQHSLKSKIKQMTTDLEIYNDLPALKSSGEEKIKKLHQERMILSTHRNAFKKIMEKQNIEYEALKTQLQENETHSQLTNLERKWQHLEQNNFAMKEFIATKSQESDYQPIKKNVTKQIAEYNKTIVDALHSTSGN

The target of the next experiment is T3, EGFP-fused IFT38 (UniProt Q96AJ1).
T3 sequence: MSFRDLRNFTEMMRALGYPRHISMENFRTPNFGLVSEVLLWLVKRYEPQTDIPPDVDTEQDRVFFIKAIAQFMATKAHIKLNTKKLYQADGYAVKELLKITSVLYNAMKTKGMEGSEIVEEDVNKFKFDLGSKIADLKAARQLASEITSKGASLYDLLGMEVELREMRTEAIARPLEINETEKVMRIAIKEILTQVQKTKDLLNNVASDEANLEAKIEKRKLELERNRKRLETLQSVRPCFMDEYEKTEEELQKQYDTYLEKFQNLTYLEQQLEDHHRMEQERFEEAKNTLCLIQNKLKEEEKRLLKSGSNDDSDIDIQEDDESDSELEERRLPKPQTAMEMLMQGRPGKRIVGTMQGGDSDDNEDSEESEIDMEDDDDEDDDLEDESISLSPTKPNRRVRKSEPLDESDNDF

B1: IFT81 (protein, UniProt Q8WYA0 1-676)
chain: MSDQIKFIMDSLNKEPFRKNYNLITFDSLEPMQLLQVLSDVLAEIDPKQLVDIREEMPEQTAKRMLSLLGILKYKPSGNATDMSTFRQGLVIGSKPVIYPVLHWLLQRTNELKKRAYLARFLIKLEVPSEFLQDETVADTNKQYEELMEAFKTLHKEYEQLKISGFSTAEIRKDISAMEEEKDQLIKRVEHLKKRVETAQNHQWMLKIARQLRVEKEREEYLAQQKQEQKNQLFHAVQRLQRVQNQLKSMRQAAADAKPESLMKRLEEEIKFNLYMVTEKFPKELENKKKELHFLQKVVSEPAMGHSDLLELESKINEINTEINQLIEKKMMRNEPIEGKLSLYRQQASIISRKKEAKAEELQEAKEKLASLEREASVKRNQTREFDGTEVLKGDEFKRYVNKLRSKSTVFKKKHQIIAELKAEFGLLQRTEELLKQRHENIQQQLQTMEEKKGISGYSYTQEELERVSALKSEVDEMKGRTLDDMSEMVKKLYSLVSEKKSALASVIKELRQLRQKYQELTQECDEKKSQYDSCAAGLESNRSKLEQEVRRLREECLQEESRYHYTNCMIKNLEVQLRRATDEMKAYISSDQQEKRKAIREQYTKNTAEQENLGKKLREKQKVIRESHGPNMKQAKMWRDLEQLMECKKQCFLKQQSQTSIGQVIQEGGEDRLIL
As to B1, the binding result with EGFP-fused IFT52 and with EGFP-fused IFT74 was “binds” each time.

B2: IFT57 (protein, UniProt Q9NWB7 1-429)
chain: MTAALAVVTTSGLEDGVPRSRGEGTGEVVLERGPGAAYHMFVVMEDLVEKLKLLRYEEEFLRKSNLKAPSRHYFALPTNPGEQFYMFCTLAAWLINKAGRPFEQPQEYDDPNATISNILSELRSFGRTADFPPSKLKSGYGEHVCYVLDCFAEEALKYIGFTWKRPIYPVEELEEESVAEDDAELTLNKVDEEFVEEETDNEENFIDLNVLKAQTYHLDMNETAKQEDILESTTDAAEWSLEVERVLPQLKVTIRTDNKDWRIHVDQMHQHRSGIESALKETKGFLDKLHNEITRTLEKISSREKYINNQLENLVQEYRAAQAQLSEAKERYQQGNGGVTERTRLLSEVMEELEKVKQEMEEKGSSMTDGAPLVKIKQSLTKLKQETVEMDIRIGIVEHTLLQSKLKEKSNMTRNMHATVIPEPATGFY
For B2, the binding result with EGFP-fused IFT38 was “binds”.
